± gives the standard deviation of the averaged measurements. Differences between knockout arms are mostly noise.
Tests used:
HCC-38 = test: relative cell number vs DMSO control (72 h) (% of DMSO); higher = less growth inhibition (more cells)
Method: (§1)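 QMAP-Seq: a pool of 5 breast cancer cell lines (ZR-75-1, SKBR3, HCC-38, MDA-MB-231, BT-20), each carrying 12 doxycycline-inducible Cas9 sgRNA perturbations (11 knockouts plus non-targeting sgNT), was treated with compounds for 72 h at four 10-fold doses (10 nM-10 uM or 1 nM-1 uM range). Barcodes were amplified and sequenced, and cell number was interpolated from 293T spike-in standard curves. The result is expressed as % of the median of DMSO wells. Two biological replicates.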

BT-20 = test: as above
Method: as §1

CCOc1cc2ncc(C#N)c(Nc3ccc(OCc4ccccn4)c(Cl)c3)c2cc1NC(=O)/C=C/CN(C)C [Neratinib]
relative cell number
Details | BT-20 | HCC-38
sgRNA knockout: sgATF3, 10 nM | 102 ± 15 | 105 ± 4.3
sgRNA knockout: sgATF3, 100 nM | 83.7 ± 3.7 | 93.4 ± 7.5
sgRNA knockout: sgATF3, 1000 nM | 81.4 ± 6 | 91.9 ± 2.6
sgRNA knockout: sgATF3, 10000 nM | 59.1 ± 3.8 | 53.3 ± 1.1
sgRNA knockout: sgATF4, 10 nM | 99.6 ± 4.2 | 86 ± 5.8
sgRNA knockout: sgATF4, 100 nM | 125 ± 17 | 102 ± 2.7
sgRNA knockout: sgATF4, 1000 nM | 83.2 ± 2.1 | 95 ± 8.9
sgRNA knockout: sgATF4, 10000 nM | 60.5 ± 1.4 | 49.2 ± 1.7
sgRNA knockout: sgATF6, 10 nM | 106 ± 13 | 91.9 ± 14
sgRNA knockout: sgATF6, 100 nM | 90.7 ± 8.4 | 102.2 ± 0.7
sgRNA knockout: sgATF6, 1000 nM | 91.6 ± 4.6 | 97.26 ± 0.23
sgRNA knockout: sgATF6, 10000 nM | 57.9 ± 18 | 52.6 ± 13
sgRNA knockout: sgATG7, 10 nM | 92.7 ± 15 | 94.9 ± 12
sgRNA knockout: sgATG7, 100 nM | 86.8 ± 9.1 | 97.2 ± 4.1
sgRNA knockout: sgATG7, 1000 nM | 69.6 ± 8.4 | 88 ± 9.7
sgRNA knockout: sgATG7, 10000 nM | 48.4 ± 3.7 | 55 ± 3.2
sgRNA knockout: sgERN1, 10 nM | 97.6 ± 3.9 | 83.4 ± 4.6
sgRNA knockout: sgERN1, 100 nM | 103 ± 8.1 | 93.1 ± 12
sgRNA knockout: sgERN1, 1000 nM | 82.3 ± 8 | 96.3 ± 5.8
sgRNA knockout: sgERN1, 10000 nM | 49 ± 3 | 49.95 ± 0.086
sgRNA knockout: sgHSF1, 10 nM | 93.83 ± 0.76 | 110 ± 2.3
sgRNA knockout: sgHSF1, 100 nM | 98.5 ± 3.5 | 96.8 ± 6.8
sgRNA knockout: sgHSF1, 1000 nM | 81.1 ± 3.9 | 92.8 ± 5.4
sgRNA knockout: sgHSF1, 10000 nM | 59.7 ± 3.6 | 50 ± 7.3
sgRNA knockout: sgHSF2, 10 nM | 101 ± 18 | 99.2 ± 7.9
sgRNA knockout: sgHSF2, 100 nM | 93.5 ± 7 | 110 ± 4.2
sgRNA knockout: sgHSF2, 1000 nM | 81.6 ± 7.1 | 102 ± 7.7
sgRNA knockout: sgHSF2, 10000 nM | 57 ± 4.7 | 46.1 ± 2.1
sgRNA knockout: sgKEAP1, 10 nM | 98.3 ± 6.3 | 93 ± 7.6
sgRNA knockout: sgKEAP1, 100 nM | 95.8 ± 7.7 | 113 ± 7.2
sgRNA knockout: sgKEAP1, 1000 nM | 77 ± 12 | 87.7 ± 19
sgRNA knockout: sgKEAP1, 10000 nM | 58.5 ± 5.5 | 53.7 ± 0.59
sgRNA knockout: sgNFE2L2, 10 nM | 99 ± 6.8 | 82.7 ± 7.9
sgRNA knockout: sgNFE2L2, 100 nM | 90.3 ± 13 | 97.4 ± 6.1
sgRNA knockout: sgNFE2L2, 1000 nM | 70.3 ± 0.75 | 92.7 ± 11
sgRNA knockout: sgNFE2L2, 10000 nM | 54.1 ± 1.3 | 50.2 ± 2
sgRNA knockout: sgSLC35F2, 10 nM | 101 ± 4.3 | 97.5 ± 11
sgRNA knockout: sgSLC35F2, 100 nM | 82.9 ± 13 | 102 ± 5.5
sgRNA knockout: sgSLC35F2, 1000 nM | 76.6 ± 2.3 | 95.3 ± 13
sgRNA knockout: sgSLC35F2, 10000 nM | 50.7 ± 3.6 | 44.56 ± 0.3
sgRNA knockout: sgXBP1, 10 nM | 111 ± 13 | 85.4 ± 2.3
sgRNA knockout: sgXBP1, 100 nM | 103 ± 1.4 | 97.9 ± 6.5
sgRNA knockout: sgXBP1, 1000 nM | 78.4 ± 2.2 | 99.2 ± 16
sgRNA knockout: sgXBP1, 10000 nM | 58 ± 1.8 | 51.4 ± 4.8

CN(C)C/C=C/C(=O)Nc1cc2c(Nc3ccc(F)c(Cl)c3)ncnc2cc1O[C@H]1CCOC1 [Afatinib]
relative cell number
Details | BT-20 | HCC-38
sgRNA knockout: sgATF3, 10 nM | 105 ± 38 | 95.7 ± 22
sgRNA knockout: sgATF3, 100 nM | 88.7 ± 4.2 | 103 ± 12
sgRNA knockout: sgATF3, 1000 nM | 77.6 ± 5.2 | 85 ± 12
sgRNA knockout: sgATF3, 10000 nM | 24 ± 1.1 | 22.13 ± 0.079
sgRNA knockout: sgATF4, 10 nM | 108 ± 6 | 93.1 ± 31
sgRNA knockout: sgATF4, 100 nM | 86 ± 15 | 114 ± 24
sgRNA knockout: sgATF4, 1000 nM | 89.7 ± 22 | 75.3 ± 4.5
sgRNA knockout: sgATF4, 10000 nM | 20.7 ± 0.68 | 20 ± 0.22
sgRNA knockout: sgATF6, 10 nM | 106 ± 23 | 112 ± 36
sgRNA knockout: sgATF6, 100 nM | 76.1 ± 2.2 | 89.5 ± 13
sgRNA knockout: sgATF6, 1000 nM | 68.3 ± 0.88 | 84.2 ± 1.4
sgRNA knockout: sgATF6, 10000 nM | 23.8 ± 0.98 | 27.7 ± 2.1
sgRNA knockout: sgATG7, 10 nM | 118 ± 34 | 93.9 ± 26
sgRNA knockout: sgATG7, 100 nM | 85.9 ± 9.4 | 96.5 ± 6.8
sgRNA knockout: sgATG7, 1000 nM | 71.2 ± 12 | 73.9 ± 3.4
sgRNA knockout: sgATG7, 10000 nM | 27.3 ± 3.1 | 21.6 ± 2.6
sgRNA knockout: sgERN1, 10 nM | 101 ± 16 | 96.1 ± 21
sgRNA knockout: sgERN1, 100 nM | 66.2 ± 8.9 | 97.8 ± 2.9
sgRNA knockout: sgERN1, 1000 nM | 73.7 ± 2.9 | 74.2 ± 0.81
sgRNA knockout: sgERN1, 10000 nM | 26.1 ± 1 | 20.6 ± 1.7
sgRNA knockout: sgHSF1, 10 nM | 102 ± 23 | 105 ± 13
sgRNA knockout: sgHSF1, 100 nM | 75.2 ± 2.2 | 81.2 ± 15
sgRNA knockout: sgHSF1, 1000 nM | 81.4 ± 2.9 | 92.9 ± 8.9
sgRNA knockout: sgHSF1, 10000 nM | 25.9 ± 0.34 | 22.6 ± 4
sgRNA knockout: sgHSF2, 10 nM | 90.3 ± 9 | 108 ± 38
sgRNA knockout: sgHSF2, 100 nM | 71.8 ± 3.5 | 102 ± 8.7
sgRNA knockout: sgHSF2, 1000 nM | 74.6 ± 1.5 | 84.4 ± 3.6
sgRNA knockout: sgHSF2, 10000 nM | 22.16 ± 0.14 | 21.4 ± 0.26
sgRNA knockout: sgKEAP1, 10 nM | 103 ± 11 | 121 ± 15
sgRNA knockout: sgKEAP1, 100 nM | 76 ± 1.5 | 101 ± 17
sgRNA knockout: sgKEAP1, 1000 nM | 79.6 ± 14 | 81.7 ± 24
sgRNA knockout: sgKEAP1, 10000 nM | 23.4 ± 0.95 | 21.5 ± 1.6
sgRNA knockout: sgNFE2L2, 10 nM | 113 ± 42 | 84.9 ± 25
sgRNA knockout: sgNFE2L2, 100 nM | 85 ± 12 | 103 ± 17
sgRNA knockout: sgNFE2L2, 1000 nM | 78.5 ± 17 | 66.3 ± 3
sgRNA knockout: sgNFE2L2, 10000 nM | 16.3 ± 0.66 | 20.6 ± 1.6
sgRNA knockout: sgSLC35F2, 10 nM | 108 ± 16 | 88.5 ± 20
sgRNA knockout: sgSLC35F2, 100 nM | 76.4 ± 8.1 | 102.2 ± 0.89
sgRNA knockout: sgSLC35F2, 1000 nM | 79.9 ± 9.4 | 75.1 ± 6.9
sgRNA knockout: sgSLC35F2, 10000 nM | 22.4 ± 10 | 19.49 ± 0.11
sgRNA knockout: sgXBP1, 10 nM | 91.4 ± 20 | 91.8 ± 33
sgRNA knockout: sgXBP1, 100 nM | 90.6 ± 13 | 104 ± 22
sgRNA knockout: sgXBP1, 1000 nM | 84.1 ± 7.8 | 77.3 ± 4.5
sgRNA knockout: sgXBP1, 10000 nM | 22.6 ± 5.2 | 22.42 ± 0.04
